Counter-ions that a name gives are not always drawn. Some of the results follow. Most values come without repeats; read them as rough.
System: hsa-miR-132-3p
Experiment: miR-132-3p level in NGN2-iNs after compound treatment (TMM-normalised, ComBat batch-corrected) (batch-corrected normalised expression (arbitrary units)); higher = higher miR-132-3p expression
Conditions: 10 µM; 24 h; human iPSC-derived NGN2 neurons (BR43)

Row | Structure (SMILES) | miR-132-3p level in NGN2-iNs
1 | Cc1cccc(C)c1NC(=O)C1CCCCN1C (centres undefined) [Mepivacaine HCl] | -2.11
2 | Cc1c(C(N)=O)cc([N+](=O)[O-])cc1[N+](=O)[O-] [Dinitolmide] | 1.22
3 | CN(C)CCC=C1c2ccccc2CCc2ccccc21 [Amitriptyline HCl] | 0.426
4 | Cc1ccnc2c1NC(=O)c1cccnc1N2C1CC1 [Nevirapine] | -0.203
5 | Cc1[nH]c(=O)c(C#N)cc1-c1ccncc1 [Milrinone] | 1.2
6 | COc1cc2c(cc1OC)CN(CCc1ccc(NC(=O)c3cc(OC)c(OC)cc3NC(=O)c3cnc4ccccc4c3)cc1)CC2 [Tariquidar (XR9576)] | 0.0991
7 | COc1cc(Cc2cnc(N)nc2N)cc(OC)c1OC [Trimethoprim] | 0.237
8 | N#CC(=Cc1ccc(O)c(O)c1)C(=O)NCc1ccccc1 [AG-490 (Tyrphostin B42)] | 0.0738
9 | CC1(COc2ccc3c(c2)ncn3-c2ccc3cccc(N4CCC(N)CC4)c3n2)COC1 | -0.175
10 | C[C@@H](Oc1cc(-n2cnc3ccc(CN4CCN(C)CC4)cc32)sc1C(N)=O)c1ccccc1C(F)(F)F | -0.461
11 | CC(C)(C)C(=O)OCOP(=O)(COCCn1cnc2c(N)ncnc21)OCOC(=O)C(C)(C)C [Adefovir Dipivoxil] | -0.625
12 | COc1cc(OC)c(C(=O)CCCN2CCCC2)c(OC)c1 [Buflomedil HCl] | -0.516
13 | O=c1ccc2ccc(O)c(O)c2o1 [Daphnetin] | 0.003
14 | O=C(O)CC[C@H]1CC[C@@](c2cc(F)ccc2F)(S(=O)(=O)c2ccc(Cl)cc2)CC1 | -0.0434
15 | Nc1nc(N)c2nc(-c3cccc(O)c3)cnc2n1 | -1.13
16 | CN1CCC(=C2c3ccccc3CC(=O)c3sccc32)CC1 [Ketotifen Fumarate] | 0.503
17 | COc1ccccc1N1CCN(CC(O)COc2cccc3ccccc23)CC1 (centres undefined) [Naftopidil] | -0.899
18 | COc1ccccc1N1CCN(CC(O)COc2cccc3ccccc23)CC1 (centres undefined) [Naftopidil DiHCl] | -0.265
19 | CC(C)(Sc1cc(C(C)(C)C)c(O)c(C(C)(C)C)c1)Sc1cc(C(C)(C)C)c(O)c(C(C)(C)C)c1 [Probucol] | -1.85
20 | Nc1c(Br)cc(Br)cc1CN[C@H]1CC[C@H](O)CC1 [Ambroxol HCl] | 0.847

Row | Structure (SMILES) | miR-132-3p level in NGN2-iNs
21 | Cn1ccnc1S [Methimazole] | 0.74
22 | CS(=O)(=O)CCNCc1ccc(-c2ccc3ncnc(Nc4ccc(OCc5cccc(F)c5)c(Cl)c4)c3c2)o1 | -0.466
23 | C=CC(=O)Nc1cccc(Nc2nc(Nc3ccc(N4CCN(C(C)=O)CC4)cc3OC)ncc2C(F)(F)F)c1 [Rociletinib (CO-1686)] | 1.19
24 | CC(C)(Oc1ccc(Cl)cc1)C(=O)O [Clofibric Acid] | -0.0903
25 | COc1ccc(C(=O)Nc2sc3c(c2C(N)=O)CCCC3)cc1OC | 0.179
26 | O=NO [Sodium Nitrite] | 0.723
27 | COC1C(O)CC(=O)OC(C)CC=CC=CC(OC2CCC(N(C)C)C(C)O2)C(C)CC(CC=O)C1OC1OC(C)C(OC2CC(C)(O)C(O)C(C)O2)C(N(C)C)C1O (centres undefined) [Spiramycin] | 0.172
28 | COc1cc2ncc(-c3ccccc3)nc2cc1OC [Tyrphostin AG 1296] | -0.338
29 | CS(=O)(=O)c1cccc(CNc2nc(Nc3ccc4c(c3)CCC(=O)N4)ncc2C(F)(F)F)c1 | 0.318
30 | CC1(C)CCC(CN2CCN(c3ccc(C(=O)NS(=O)(=O)c4ccc(NCC5CCOCC5)c([N+](=O)[O-])c4)c(Oc4cnc5[nH]ccc5c4)c3)CC2)=C(c2ccc(Cl)cc2)C1 [Venetoclax (ABT-199, GDC-0199)] | -0.999
31 | CCCCCCCCCCC[C@@H](C[C@@H]1OC(=O)[C@H]1CCCCCC)OC(=O)[C@H](CC(C)C)NC=O [Orlistat] | 0.198
32 | CCN(CCO)CCCOc1ccc2c(Nc3cc(CC(=O)Nc4cccc(F)c4)[nH]n3)ncnc2c1 [Barasertib (AZD1152-HQPA)] | 0.0275
33 | CC1CCc2c(N3CCC(O)CC3)c(F)cc3c(=O)c(C(=O)O)cn1c23 (centres undefined) [Nadifloxacin] | 0.785
34 | NC12CC3CC(CC(C3)C1)C2 [Amantadine HCl] | 1.25
35 | O=c1c2ccccc2oc2ccccc12 [Xanthone] | -0.176
36 | Nc1ncn([C@H]2C[C@H](O)[C@@H](CO)O2)c(=O)n1 [Decitabine] | 0.342
37 | O=c1cc(-c2ccc(O)c(O)c2)oc2cc(O)cc(O)c12 [Luteolin] | 1.2
38 | CC(C)/N=c1\cc2n(-c3ccc(Cl)cc3)c3ccccc3nc-2cc1Nc1ccc(Cl)cc1 [Clofazimine] | -0.188
39 | C[C@@H]1[C@H](O)[C@@H](C)/C=C/C=C/C=C/C=C/C=C/C=C/C=C/[C@H](O[C@@H]2O[C@H](C)[C@@H](O)[C@H](N)[C@@H]2O)C[C@@H]2O[C@](O)(C[C@@H](O)C[C@@H](O)[C@H](O)CC[C@@H](O)C[C@@H](O)CC(=O)O[C@H]1C)C[C@H](O)[C@H]2C(=O)O [Amphotericin B] | -0.029

Records 16 to 24 of the list above:
Row | Structure (SMILES) | miR-132-3p level in NGN2-iNs
16 | CN1CCC(=C2c3ccccc3CC(=O)c3sccc32)CC1 [Ketotifen Fumarate] | 0.503
17 | COc1ccccc1N1CCN(CC(O)COc2cccc3ccccc23)CC1 (centres undefined) [Naftopidil] | -0.899
18 | COc1ccccc1N1CCN(CC(O)COc2cccc3ccccc23)CC1 (centres undefined) [Naftopidil DiHCl] | -0.265
19 | CC(C)(Sc1cc(C(C)(C)C)c(O)c(C(C)(C)C)c1)Sc1cc(C(C)(C)C)c(O)c(C(C)(C)C)c1 [Probucol] | -1.85
20 | Nc1c(Br)cc(Br)cc1CN[C@H]1CC[C@H](O)CC1 [Ambroxol HCl] | 0.847
21 | Cn1ccnc1S [Methimazole] | 0.74
22 | CS(=O)(=O)CCNCc1ccc(-c2ccc3ncnc(Nc4ccc(OCc5cccc(F)c5)c(Cl)c4)c3c2)o1 | -0.466
23 | C=CC(=O)Nc1cccc(Nc2nc(Nc3ccc(N4CCN(C(C)=O)CC4)cc3OC)ncc2C(F)(F)F)c1 [Rociletinib (CO-1686)] | 1.19
24 | CC(C)(Oc1ccc(Cl)cc1)C(=O)O [Clofibric Acid] | -0.0903

— the supplement of paper PMC10663445
